Results from the supplement of paper PMC4604168 (melanoma cell lines).
The list shows a part of the results. Many values rest on one well or one pass, so single values are uncertain.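 The apoptosis fraction was the count of cleaved-PARP antibody-stained nuclei relative to all DNA-stained nuclei, imaged in 1,536-well plates. Screening doses were set so most cells survived, and baseline and induced cleaved-PARP levels vary greatly across cell lines.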

These molecules were tested on A375 (assay: cleaved PARP positive nuclei fraction relative to DMSO control; melanoma cells; higher = more apoptosis). Conditions: library dose: low library concentration; 72 h.

Compound	cleaved PARP positive nuclei fraction [%]
COc1ccc2c(c1)CCC1C2CCC2(C)C(NCCCCCCN3C(=O)C=CC3=O)CCC12 (stereo unspecified) + Oc1cc(-c2nc(-c3ccccc3)[nH]c2-c2ccncc2)ccc1Cl [L779450] (first compound 0.4 µM, partner dose 0.2 µM)	259
CN(C)S(=O)(=O)c1ccc2c(c1)/C(=C/c1cc3c([nH]1)CCCC3)C(=O)N2 + O=C(O)C(=O)Nc1sc2c(c1C(=O)O)CCNC2 [TCS401] (first compound 0.4 µM, partner dose 1.66667 µM)	47.2
COc1ccc(-c2ccc3c(N4CCOCC4)nc(N4C[C@@H](C)O[C@@H](C)C4)nc3n2)cc1CO + COc1cc(N2CCC(N3CCN(C)CC3)CC2)ccc1Nc1ncc(Cl)c(Nc2ccccc2S(=O)(=O)C(C)C)n1 [NVP-TAE684] (first compound 0.02 µM, partner dose 0.08 µM)	318
COc1cc2c(Oc3ccc4[nH]c(C)cc4c3F)ncnc2cc1OCCCN1CCCC1 [cediranib] + Oc1cc(-c2nc(-c3ccccc3)[nH]c2-c2ccncc2)ccc1Cl [L779450] (first compound 0.4 µM, partner dose 0.2 µM)	186
O=C(Nc1ccccc1)c1cc([N+](=O)[O-])ccc1Cl + Oc1cc(-c2nc(-c3ccccc3)[nH]c2-c2ccncc2)ccc1Cl [L779450] (first compound 2 µM, partner dose 0.2 µM)	63.8
O=C(Nc1ccccc1)c1cc([N+](=O)[O-])ccc1Cl + CCCCCCCCCCCC1=C(O)C(=O)C=C(O)C1=O [Embelin] (first compound 2 µM, partner dose 1.2 µM)	103
